No constants are given. Whether binding was seen depends on the method and setting. Binding seen in cells or lysates may run through a third protein. Some binding calls cover weakened binding; strength is not graded here. Where a sequence is shown, tags or fusion partners need not be part of it.
T1: wtDISC1-myc (myc-tagged wild-type DISC1 protein) (UniProt Q9NRI5)
T1 sequence (looked up): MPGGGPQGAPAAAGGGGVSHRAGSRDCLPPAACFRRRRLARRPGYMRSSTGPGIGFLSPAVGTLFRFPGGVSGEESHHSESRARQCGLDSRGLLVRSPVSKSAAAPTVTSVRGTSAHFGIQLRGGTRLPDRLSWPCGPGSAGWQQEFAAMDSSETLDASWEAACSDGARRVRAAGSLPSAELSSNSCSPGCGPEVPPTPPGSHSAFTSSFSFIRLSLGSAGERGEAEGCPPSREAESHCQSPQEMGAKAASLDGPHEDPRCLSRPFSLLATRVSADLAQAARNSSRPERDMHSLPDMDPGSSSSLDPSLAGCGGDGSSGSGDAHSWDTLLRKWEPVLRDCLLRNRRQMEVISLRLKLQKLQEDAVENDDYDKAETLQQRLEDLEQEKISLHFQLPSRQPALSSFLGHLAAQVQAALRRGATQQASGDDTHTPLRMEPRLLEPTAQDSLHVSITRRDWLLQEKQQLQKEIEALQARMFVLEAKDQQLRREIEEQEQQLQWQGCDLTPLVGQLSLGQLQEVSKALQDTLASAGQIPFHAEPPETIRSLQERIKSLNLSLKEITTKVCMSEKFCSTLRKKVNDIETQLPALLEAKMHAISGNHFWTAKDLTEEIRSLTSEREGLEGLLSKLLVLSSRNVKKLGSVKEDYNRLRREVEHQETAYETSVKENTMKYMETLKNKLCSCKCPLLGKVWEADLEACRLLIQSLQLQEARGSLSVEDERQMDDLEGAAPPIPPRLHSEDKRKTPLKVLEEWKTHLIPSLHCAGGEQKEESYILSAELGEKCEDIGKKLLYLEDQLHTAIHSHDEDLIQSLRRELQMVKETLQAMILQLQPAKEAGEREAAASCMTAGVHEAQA

T2: GST-tagged DISC1 protein fragment (amino acids 347-600) (UniProt Q9NRI5)
T2 sequence (looked up): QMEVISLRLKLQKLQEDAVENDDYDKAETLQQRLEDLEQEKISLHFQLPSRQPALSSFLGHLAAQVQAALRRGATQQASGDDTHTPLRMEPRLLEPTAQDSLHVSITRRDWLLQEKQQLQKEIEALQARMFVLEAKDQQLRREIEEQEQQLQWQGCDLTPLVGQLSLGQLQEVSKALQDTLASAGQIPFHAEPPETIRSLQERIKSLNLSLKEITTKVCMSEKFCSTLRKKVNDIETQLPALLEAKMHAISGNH

B1: wtDISC1-HA (HA-tagged wild-type DISC1 protein) (protein, UniProt Q9NRI5 1-854, looked up, not shown: small tags and cut ends)
chain: MPGGGPQGAPAAAGGGGVSHRAGSRDCLPPAACFRRRRLARRPGYMRSSTGPGIGFLSPAVGTLFRFPGGVSGEESHHSESRARQCGLDSRGLLVRSPVSKSAAAPTVTSVRGTSAHFGIQLRGGTRLPDRLSWPCGPGSAGWQQEFAAMDSSETLDASWEAACSDGARRVRAAGSLPSAELSSNSCSPGCGPEVPPTPPGSHSAFTSSFSFIRLSLGSAGERGEAEGCPPSREAESHCQSPQEMGAKAASLDGPHEDPRCLSRPFSLLATRVSADLAQAARNSSRPERDMHSLPDMDPGSSSSLDPSLAGCGGDGSSGSGDAHSWDTLLRKWEPVLRDCLLRNRRQMEVISLRLKLQKLQEDAVENDDYDKAETLQQRLEDLEQEKISLHFQLPSRQPALSSFLGHLAAQVQAALRRGATQQASGDDTHTPLRMEPRLLEPTAQDSLHVSITRRDWLLQEKQQLQKEIEALQARMFVLEAKDQQLRREIEEQEQQLQWQGCDLTPLVGQLSLGQLQEVSKALQDTLASAGQIPFHAEPPETIRSLQERIKSLNLSLKEITTKVCMSEKFCSTLRKKVNDIETQLPALLEAKMHAISGNHFWTAKDLTEEIRSLTSEREGLEGLLSKLLVLSSRNVKKLGSVKEDYNRLRREVEHQETAYETSVKENTMKYMETLKNKLCSCKCPLLGKVWEADLEACRLLIQSLQLQEARGSLSVEDERQMDDLEGAAPPIPPRLHSEDKRKTPLKVLEEWKTHLIPSLHCAGGEQKEESYILSAELGEKCEDIGKKLLYLEDQLHTAIHSHDEDLIQSLRRELQMVKETLQAMILQLQPAKEAGEREAAASCMTAGVHEAQA
B2: His-tagged DISC1 protein fragment (amino acids 347-600) (protein, UniProt Q9NRI5 347-600, looked up, not shown: small tags and cut ends)
chain: QMEVISLRLKLQKLQEDAVENDDYDKAETLQQRLEDLEQEKISLHFQLPSRQPALSSFLGHLAAQVQAALRRGATQQASGDDTHTPLRMEPRLLEPTAQDSLHVSITRRDWLLQEKQQLQKEIEALQARMFVLEAKDQQLRREIEEQEQQLQWQGCDLTPLVGQLSLGQLQEVSKALQDTLASAGQIPFHAEPPETIRSLQERIKSLNLSLKEITTKVCMSEKFCSTLRKKVNDIETQLPALLEAKMHAISGNH

Tests used:
[1] = biological target: T1, wtDISC1-myc (myc-tagged wild-type DISC1 protein); assay: co-immunoprecipitation in HEK293 cells with an anti-myc antibody
[2] = biological target: T1, wtDISC1-myc (myc-tagged wild-type DISC1 protein); assay: co-immunoprecipitation in HEK293 cells, anti-myc precipitation, anti-HA Western blot
[3] = biological target: T2, GST-tagged DISC1 protein fragment (amino acids 347-600); assay: in vitro binding assay, glutathione Sepharose pull-down, anti-His Western blot

Row | Binder | binding [1] | binding [2] | binding [3]
1 | B1 | binds | binds | 
2 | B2 |  |  | binds
